{
  "source": "patent US8598212B2",
  "about": "“Therapeutic agent and preventative agent for alzheimer's disease” (Toray Industries, Inc., priority 2010, dated 2013)",
  "tested_on": "Alzheimer's disease model rats",
  "test": "Morris water maze test in Alzheimer's disease model rats (basal ganglia destroyed with ibotenic acid)",
  "assay_type": "in vivo, Wistar rats",
  "conditions": "0.5 mg/kg oral 60 minutes before first trial on Day 10 to Day 12 after destruction treatment",
  "description": "In the experiments, 10 male Wistar rats of 7 weeks old were used for one experimental group. Rats were anesthetized and fixed in a brain stereotaxic apparatus. The skull of each rat was exposed, and small windows were made at two sites: 1.4 mm posterior to the bregma and 2.8 mm left and right of the midline. A catheter was inserted from the exposed dura mater into the basal ganglia located at 7.6 mm in a ventral direction, and ibotenic acid solution prepared by dissolving 5 μg ibotenic acid in 0.5 μL phosphate buffer (50 mM) was injected over 5 minutes to destroy the basal ganglia, thereby preparing Alzheimer's disease model rats. Rats of sham operation group received injection of 0.5 μL phosphate buffer (50 mM) instead of ibotenic acid solution. […]\nLearning and memory function of the subject rats were evaluated by the Morris water maze test. […] The swimming time until a subject rat placed at the arbitrary start position in the round pool reached the platform (hereinafter “Escape latency”) was measured by recording the movement locus of the subject rat with a video image behavioral analysis system. […]",
  "note": "Counter-ions that a name gives are not always drawn.",
  "data": [
    {"smiles": "COc1cc2c(cc1OC)C(=O)C(CC1CCN(Cc3ccccc3)CC1)C2", "note": "(stereo not shown) [donepezil hydrochloric acid salt, reference compound]", "values": [
      {"measurement": "Escape latency in Morris water maze", "value": "shortened to the same level as of the sham operation group rats"}
    ]}
  ]
}
